Assay results published in the supplement of paper PMC10849652.
This is one part of the list.

Protein sequences, listed by entry. Tags and fused reporters are not part of them. Lines headed by an entry give the natural chain unless they say otherwise; changes in a name come on top.
UniProt Q9H9E3: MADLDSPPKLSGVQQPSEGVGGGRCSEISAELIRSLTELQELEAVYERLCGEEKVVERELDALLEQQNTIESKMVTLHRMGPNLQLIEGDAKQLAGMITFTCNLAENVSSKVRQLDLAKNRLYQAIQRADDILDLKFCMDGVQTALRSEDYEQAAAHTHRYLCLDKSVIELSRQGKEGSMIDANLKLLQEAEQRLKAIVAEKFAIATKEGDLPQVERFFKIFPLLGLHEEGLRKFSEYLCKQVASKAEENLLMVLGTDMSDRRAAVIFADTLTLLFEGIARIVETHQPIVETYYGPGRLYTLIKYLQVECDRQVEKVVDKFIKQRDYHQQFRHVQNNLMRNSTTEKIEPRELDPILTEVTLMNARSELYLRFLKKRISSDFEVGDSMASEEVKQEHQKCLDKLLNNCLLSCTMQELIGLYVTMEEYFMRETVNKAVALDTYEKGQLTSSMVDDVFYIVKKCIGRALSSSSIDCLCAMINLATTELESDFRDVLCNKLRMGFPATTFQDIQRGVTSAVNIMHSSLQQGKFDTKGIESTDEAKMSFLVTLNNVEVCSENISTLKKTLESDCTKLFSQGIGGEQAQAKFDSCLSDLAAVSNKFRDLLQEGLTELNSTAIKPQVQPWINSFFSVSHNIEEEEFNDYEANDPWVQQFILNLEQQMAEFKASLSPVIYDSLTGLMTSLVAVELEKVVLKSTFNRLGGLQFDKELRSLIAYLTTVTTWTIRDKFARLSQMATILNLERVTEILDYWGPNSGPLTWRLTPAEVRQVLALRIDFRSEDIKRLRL
UniProt P35606: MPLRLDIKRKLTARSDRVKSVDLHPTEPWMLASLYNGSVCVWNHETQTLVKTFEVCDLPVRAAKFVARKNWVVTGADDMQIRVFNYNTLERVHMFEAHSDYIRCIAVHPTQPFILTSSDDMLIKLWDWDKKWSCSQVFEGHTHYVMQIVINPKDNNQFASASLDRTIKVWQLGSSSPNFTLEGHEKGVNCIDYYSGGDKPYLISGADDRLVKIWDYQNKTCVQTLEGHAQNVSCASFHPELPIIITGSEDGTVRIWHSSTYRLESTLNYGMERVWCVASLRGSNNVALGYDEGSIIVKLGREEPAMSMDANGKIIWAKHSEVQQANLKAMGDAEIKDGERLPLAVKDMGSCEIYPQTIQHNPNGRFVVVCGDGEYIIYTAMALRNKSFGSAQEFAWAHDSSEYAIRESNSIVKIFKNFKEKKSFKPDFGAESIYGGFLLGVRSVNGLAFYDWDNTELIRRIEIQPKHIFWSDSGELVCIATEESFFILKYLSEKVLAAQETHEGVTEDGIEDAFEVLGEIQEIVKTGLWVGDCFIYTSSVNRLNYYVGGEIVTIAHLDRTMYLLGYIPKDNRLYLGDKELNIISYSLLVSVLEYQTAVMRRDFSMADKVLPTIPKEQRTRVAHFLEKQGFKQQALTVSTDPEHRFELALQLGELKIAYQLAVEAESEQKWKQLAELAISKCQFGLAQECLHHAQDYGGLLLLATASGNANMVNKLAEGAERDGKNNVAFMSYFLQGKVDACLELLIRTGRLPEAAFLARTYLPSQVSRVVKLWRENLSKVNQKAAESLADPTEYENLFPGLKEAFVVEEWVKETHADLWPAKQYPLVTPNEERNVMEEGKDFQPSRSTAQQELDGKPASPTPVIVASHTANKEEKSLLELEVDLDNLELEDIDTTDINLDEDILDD
UniProt Q8WTW3: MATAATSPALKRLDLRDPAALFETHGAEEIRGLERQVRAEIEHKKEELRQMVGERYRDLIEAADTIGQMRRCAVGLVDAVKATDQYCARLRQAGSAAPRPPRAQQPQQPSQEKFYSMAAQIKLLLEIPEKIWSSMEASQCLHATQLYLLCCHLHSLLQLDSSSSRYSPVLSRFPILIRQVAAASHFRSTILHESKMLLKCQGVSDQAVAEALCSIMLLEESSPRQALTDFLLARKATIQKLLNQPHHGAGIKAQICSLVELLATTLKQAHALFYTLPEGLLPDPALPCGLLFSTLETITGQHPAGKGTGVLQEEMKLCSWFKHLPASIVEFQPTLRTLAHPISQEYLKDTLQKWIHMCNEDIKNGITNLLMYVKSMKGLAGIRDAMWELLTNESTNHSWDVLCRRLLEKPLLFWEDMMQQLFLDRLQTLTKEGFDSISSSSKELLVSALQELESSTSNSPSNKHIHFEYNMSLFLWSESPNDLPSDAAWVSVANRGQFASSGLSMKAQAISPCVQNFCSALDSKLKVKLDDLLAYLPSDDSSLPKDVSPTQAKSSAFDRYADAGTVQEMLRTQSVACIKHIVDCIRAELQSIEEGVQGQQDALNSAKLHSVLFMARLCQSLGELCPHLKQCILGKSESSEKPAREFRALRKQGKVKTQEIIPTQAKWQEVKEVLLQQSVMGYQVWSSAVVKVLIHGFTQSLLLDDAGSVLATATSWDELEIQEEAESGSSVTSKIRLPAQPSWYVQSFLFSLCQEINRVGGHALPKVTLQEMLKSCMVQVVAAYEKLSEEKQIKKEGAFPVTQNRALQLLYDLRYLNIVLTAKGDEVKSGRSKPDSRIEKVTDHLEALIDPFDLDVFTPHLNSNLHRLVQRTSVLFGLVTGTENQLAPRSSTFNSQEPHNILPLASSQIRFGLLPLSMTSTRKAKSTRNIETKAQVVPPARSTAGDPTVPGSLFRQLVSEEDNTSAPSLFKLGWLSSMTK
UniProt O75175, whole entry, looked up: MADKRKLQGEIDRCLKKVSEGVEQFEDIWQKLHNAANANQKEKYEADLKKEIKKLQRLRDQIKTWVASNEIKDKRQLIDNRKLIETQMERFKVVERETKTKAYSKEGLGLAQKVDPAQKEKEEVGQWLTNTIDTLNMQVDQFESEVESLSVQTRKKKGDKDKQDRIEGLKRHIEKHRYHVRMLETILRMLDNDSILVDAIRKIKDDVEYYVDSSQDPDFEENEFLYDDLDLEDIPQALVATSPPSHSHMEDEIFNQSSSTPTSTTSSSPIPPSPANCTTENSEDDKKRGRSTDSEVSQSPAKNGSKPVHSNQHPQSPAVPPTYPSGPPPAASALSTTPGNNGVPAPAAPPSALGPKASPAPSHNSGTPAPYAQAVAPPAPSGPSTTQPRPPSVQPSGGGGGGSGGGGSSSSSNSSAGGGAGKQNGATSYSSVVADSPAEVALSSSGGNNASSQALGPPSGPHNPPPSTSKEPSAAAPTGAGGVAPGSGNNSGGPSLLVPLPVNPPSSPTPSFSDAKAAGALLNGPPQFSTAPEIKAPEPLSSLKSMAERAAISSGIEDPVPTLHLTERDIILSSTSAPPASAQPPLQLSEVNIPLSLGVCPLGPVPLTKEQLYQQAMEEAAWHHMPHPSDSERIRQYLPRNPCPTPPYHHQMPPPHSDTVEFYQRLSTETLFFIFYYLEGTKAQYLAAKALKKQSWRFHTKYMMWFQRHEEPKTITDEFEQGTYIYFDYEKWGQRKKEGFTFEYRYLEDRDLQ
UniProt Q49B96: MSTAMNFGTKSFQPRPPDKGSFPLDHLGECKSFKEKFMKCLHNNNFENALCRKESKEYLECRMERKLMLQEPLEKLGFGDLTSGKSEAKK
UniProt P20674, whole entry, looked up: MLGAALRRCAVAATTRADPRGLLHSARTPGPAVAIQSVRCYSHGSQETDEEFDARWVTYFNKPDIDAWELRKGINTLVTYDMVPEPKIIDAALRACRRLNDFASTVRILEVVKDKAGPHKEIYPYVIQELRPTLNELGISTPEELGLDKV
UniProt Q9Y6N1: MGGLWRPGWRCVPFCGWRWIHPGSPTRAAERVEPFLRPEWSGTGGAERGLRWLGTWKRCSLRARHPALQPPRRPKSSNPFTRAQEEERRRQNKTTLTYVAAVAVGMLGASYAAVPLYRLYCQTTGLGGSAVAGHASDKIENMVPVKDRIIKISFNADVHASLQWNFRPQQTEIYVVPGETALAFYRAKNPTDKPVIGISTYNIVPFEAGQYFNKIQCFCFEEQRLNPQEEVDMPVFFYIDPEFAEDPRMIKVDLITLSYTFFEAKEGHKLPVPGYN
UniProt Q7KZN9: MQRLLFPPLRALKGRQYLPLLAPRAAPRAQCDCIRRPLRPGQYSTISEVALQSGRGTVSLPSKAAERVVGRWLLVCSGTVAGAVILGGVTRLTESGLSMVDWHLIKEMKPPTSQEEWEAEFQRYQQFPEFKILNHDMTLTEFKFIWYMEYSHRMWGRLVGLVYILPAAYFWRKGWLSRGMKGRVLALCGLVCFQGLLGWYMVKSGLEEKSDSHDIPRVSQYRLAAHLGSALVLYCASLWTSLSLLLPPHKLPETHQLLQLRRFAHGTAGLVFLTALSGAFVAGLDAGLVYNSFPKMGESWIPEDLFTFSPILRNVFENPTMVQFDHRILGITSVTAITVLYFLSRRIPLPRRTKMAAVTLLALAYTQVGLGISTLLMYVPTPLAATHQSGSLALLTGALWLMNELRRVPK
UniProt P14854, whole entry, looked up: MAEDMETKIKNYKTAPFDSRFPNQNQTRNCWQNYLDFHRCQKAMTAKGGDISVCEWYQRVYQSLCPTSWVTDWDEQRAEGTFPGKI
UniProt Q9BT09: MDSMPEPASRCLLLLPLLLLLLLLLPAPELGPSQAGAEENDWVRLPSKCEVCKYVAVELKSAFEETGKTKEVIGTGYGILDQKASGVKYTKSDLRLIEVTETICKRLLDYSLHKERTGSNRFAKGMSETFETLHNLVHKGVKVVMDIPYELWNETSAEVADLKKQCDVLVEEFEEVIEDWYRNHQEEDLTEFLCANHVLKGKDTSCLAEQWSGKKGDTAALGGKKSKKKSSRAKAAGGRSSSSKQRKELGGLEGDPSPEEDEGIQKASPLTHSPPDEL
UniProt Q9NZJ6: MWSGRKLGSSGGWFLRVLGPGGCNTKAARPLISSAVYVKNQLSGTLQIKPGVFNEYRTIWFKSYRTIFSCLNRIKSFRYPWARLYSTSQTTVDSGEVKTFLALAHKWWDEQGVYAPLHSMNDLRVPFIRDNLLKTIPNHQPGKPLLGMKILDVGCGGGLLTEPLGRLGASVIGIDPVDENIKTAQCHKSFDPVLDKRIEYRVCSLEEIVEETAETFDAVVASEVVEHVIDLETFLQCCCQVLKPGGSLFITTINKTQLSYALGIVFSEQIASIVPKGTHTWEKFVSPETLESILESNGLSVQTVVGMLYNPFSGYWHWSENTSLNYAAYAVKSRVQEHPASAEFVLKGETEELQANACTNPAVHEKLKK
UniProt Q9ULM6, whole entry, looked up: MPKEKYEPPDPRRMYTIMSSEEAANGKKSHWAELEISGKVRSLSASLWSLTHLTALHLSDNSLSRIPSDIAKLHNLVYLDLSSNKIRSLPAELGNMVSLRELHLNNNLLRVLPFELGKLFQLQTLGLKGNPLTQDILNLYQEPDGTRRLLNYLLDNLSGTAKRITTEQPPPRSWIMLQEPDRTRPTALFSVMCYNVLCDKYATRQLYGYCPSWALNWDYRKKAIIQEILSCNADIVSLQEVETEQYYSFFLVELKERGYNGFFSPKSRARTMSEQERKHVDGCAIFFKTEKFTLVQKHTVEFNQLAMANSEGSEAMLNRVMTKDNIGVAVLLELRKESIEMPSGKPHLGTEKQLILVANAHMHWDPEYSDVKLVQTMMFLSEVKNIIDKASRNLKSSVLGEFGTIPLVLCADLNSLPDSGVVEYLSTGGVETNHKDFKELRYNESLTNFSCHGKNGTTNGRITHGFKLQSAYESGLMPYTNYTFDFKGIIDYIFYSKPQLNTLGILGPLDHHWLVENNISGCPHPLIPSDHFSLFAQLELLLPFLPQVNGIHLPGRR
UniProt Q99627: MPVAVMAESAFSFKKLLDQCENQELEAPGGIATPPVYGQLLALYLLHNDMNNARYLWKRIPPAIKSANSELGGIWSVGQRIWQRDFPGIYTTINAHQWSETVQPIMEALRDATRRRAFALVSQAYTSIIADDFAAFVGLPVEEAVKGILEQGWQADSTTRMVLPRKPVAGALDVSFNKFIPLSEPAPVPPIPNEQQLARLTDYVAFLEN
UniProt Q9BR76, whole entry, looked up: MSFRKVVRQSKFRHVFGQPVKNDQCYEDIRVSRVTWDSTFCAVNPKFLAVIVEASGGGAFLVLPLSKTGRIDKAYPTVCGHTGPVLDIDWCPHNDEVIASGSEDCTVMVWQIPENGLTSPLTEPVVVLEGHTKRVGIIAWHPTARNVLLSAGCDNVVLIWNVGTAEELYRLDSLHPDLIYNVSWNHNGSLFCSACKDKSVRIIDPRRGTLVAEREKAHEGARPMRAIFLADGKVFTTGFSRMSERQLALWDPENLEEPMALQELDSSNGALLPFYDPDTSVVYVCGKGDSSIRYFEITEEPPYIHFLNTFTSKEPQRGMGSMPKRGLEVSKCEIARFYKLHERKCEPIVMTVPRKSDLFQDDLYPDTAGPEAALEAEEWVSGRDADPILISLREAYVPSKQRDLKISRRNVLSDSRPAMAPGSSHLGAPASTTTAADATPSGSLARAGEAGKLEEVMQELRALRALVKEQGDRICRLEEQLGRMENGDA
UniProt Q9Y2B0: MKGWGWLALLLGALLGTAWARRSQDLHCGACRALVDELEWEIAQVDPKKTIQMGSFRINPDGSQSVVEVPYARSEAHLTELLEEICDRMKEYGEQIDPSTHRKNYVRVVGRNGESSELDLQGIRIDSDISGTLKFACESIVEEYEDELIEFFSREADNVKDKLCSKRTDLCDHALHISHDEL

How the values were obtained:
Test in all cases: log2 fold change, soluble protein after heating vs DMSO (PISA); higher = thermal stabilisation; K562 lysate, 10 uM; active = over 0.2 and 3.5 SD of the protein, either way, in both replicates (recomputed)
erlotinib = compound: C#Cc1cccc(Nc2ncnc3cc(OCCOC)c(OCCOC)cc23)c1 [erlotinib]
Summary of the method: (§1)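 Thermal stability, expressed as log-two fold change relative to solvent controls, is given from duplicates. Crude K562 extract in PBS pH 7.4 with 1 mM MgCl2, at 1 mg/mL protein, was treated with 10 μM compound for 30 min and heated in aliquots for 3 min across 48°C-58°C. After pooling, adjustment to 0.5% NP-40 at 4°C and centrifugation at 21,000xg for 90 min, supernatant protein was measured by TMTpro 16plex LC-MS/MS with channel sums equalised.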

[1] = compound: C/C(=N\NC(=O)C1=CC(=CC=C1)S(=O)(=O)N2CCOCC2)/C3=C(C=CC(=C3)Cl)O
Summary of the method: as §1

[2] = compound: C1=CC(=CC=C1C2=NC3=C(N2)C=C(C=C3)C(=O)N)OC4=CC=C(C=C4)Cl
Summary of the method: as §1

[3] = compound: C1=CC2=C(C=CC(=C2)/C=C\3/C(=O)NC(=NCC4=CC=CS4)S3)N=C1
Summary of the method: as §1

[4] = compound: C1=CC2=NC=CN=C2C=C1/C=C/3\C(=O)NC(=O)S3
Summary of the method: as §1

[5] = compound: C1=CC=C(C=C1)C2=NC(=C(N2)C3=CC=NC=C3)C4=CC(=C(C=C4)Cl)O
Summary of the method: as §1

[6] = compound: C1=CC=C2C(=C1)C3=NNC4=CC=CC(=C43)C2=O
Summary of the method: as §1

[7] = compound: C1CCN(C1)C(=O)NC2=CC=CC(=C2)NC3=NC=C(C(=N3)NCCC4=CN=CN4)Br
Summary of the method: as §1

[8] = compound: C1CN(CCC1(CC2=CC=C(C=C2)Cl)N)C3=NC=NC4=C3C=CN4
Summary of the method: as §1

IRAK-1-4 Inhibitor I = compound: C1COCCN1CCN2C3=CC=CC=C3N=C2NC(=O)C4=CC(=CC=C4)[N+](=O)[O-] [IRAK-1-4 Inhibitor I]
Summary of the method: as §1

ibrutinib = compound: C=CC(=O)N1CCC[C@@H](n2nc(-c3ccc(Oc4ccccc4)cc3)c3c(N)ncnc32)C1 [ibrutinib]
Summary of the method: as §1

[9] = compound: CC(=O)c1cnc2ccc(-c3cc(Cl)c(O)c(Cl)c3)nc2c1N[C@H]1CC[C@H](CN(C)C)CC1
Summary of the method: as §1

ralimetinib = compound: CC(C)(C)Cn1c(N)nc2ccc(-c3[nH]c(C(C)(C)C)nc3-c3ccc(F)cc3)nc21 [ralimetinib]
Summary of the method: as §1

[10] = compound: CC(C)(O)CC(=O)NCCn1ccc2ncnc(Nc3ccc(Oc4cccc(C(F)(F)F)c4)c(Cl)c3)c21
Summary of the method: as §1

[11] = compound: CC(C)C1=C2N=C(C=C(N2N=C1)NCC3=CC=CC=C3)NCCCCCCN
Summary of the method: as §1

[12] = compound: CC1=C(C(CC(=O)N1)C2=CC=C(C=C2)C(F)(F)F)C(=O)NC3=C(C=C4C(=C3)C=NN4)F
Summary of the method: as §1

[13] = compound: CC1=C(C2=C(C=C1)C(=O)C3=CC=CC=C3N2CCCN)C
Summary of the method: as §1

[14] = compound: CC1=C(C=C(C=C1)NC(=O)C2=CC(=CC=C2)C(C)(C)C#N)NC3=CC4=C(C=C3)N=CN(C4=O)C
Summary of the method: as §1

[15] = compound: CC1=C(C=C(C=C1)NC(=O)C2=CC(=CC=C2)N(C)C)NC(=O)C3=CC=C(C=C3)O
Summary of the method: as §1

[16] = compound: CC1=CC=C(C=C1)SC2=C3C=C(SC3=CN=C2)C(=O)N
Summary of the method: as §1

Measured: log2 fold change

COG4 (UniProt Q9H9E3)
inactive: erlotinib 0.029 | [1] -0.015 | [2] -0.05 | [3] -0.015 | [4] -0.018 | [5] 0.008 | [6] -0.057 | [7] 0.011 | [8] 0.039 | IRAK-1-4 Inhibitor I 0.009 | ibrutinib 0.014 | [9] 0.005 | ralimetinib -0.007 | [10] -0.042 | [11] -0.029 | [12] 0 | [13] -0.001 | [14] -0.049 | [15] -0.033 | [16] 0

COPB2 (UniProt P35606)
inactive: erlotinib -0.012 | [1] 0.017 | [2] 0.003 | [3] 0.019 | [4] 0.008 | [5] -0.006 | [6] -0.004 | [7] -0.006 | [8] -0.004 | IRAK-1-4 Inhibitor I 0.001 | ibrutinib -0.015 | [9] -0.004 | ralimetinib -0.003 | [10] -0.022 | [11] -0.005 | [12] -0.008 | [13] -0.005 | [14] 0.026 | [15] -0.003 | [16] -0.009

COG1 (UniProt Q8WTW3)
inactive: erlotinib 0.02 | [1] -0.244 | [2] -0.017 | [3] 0.083 | [4] -0.003 | [5] 0.014 | [6] 0 | [7] -0.029 | [8] 0.033 | IRAK-1-4 Inhibitor I 0.015 | ibrutinib 0.015 | [9] 0.008 | ralimetinib 0.022 | [10] -0.045 | [11] 0.009 | [12] 0.016 | [13] -0.114 | [14] 0.007 | [15] 0.001 | [16] 0.042

Reprinted at random: two records from the list
COG4 (UniProt Q9H9E3)
inactive: erlotinib 0.029 | [1] -0.015 | [2] -0.05 | [3] -0.015 | [4] -0.018 | [5] 0.008 | [6] -0.057 | [7] 0.011 | [8] 0.039 | IRAK-1-4 Inhibitor I 0.009 | ibrutinib 0.014 | [9] 0.005 | ralimetinib -0.007 | [10] -0.042 | [11] -0.029 | [12] 0 | [13] -0.001 | [14] -0.049 | [15] -0.033 | [16] 0

COPB2 (UniProt P35606)
inactive: erlotinib -0.012 | [1] 0.017 | [2] 0.003 | [3] 0.019 | [4] 0.008 | [5] -0.006 | [6] -0.004 | [7] -0.006 | [8] -0.004 | IRAK-1-4 Inhibitor I 0.001 | ibrutinib -0.015 | [9] -0.004 | ralimetinib -0.003 | [10] -0.022 | [11] -0.005 | [12] -0.008 | [13] -0.005 | [14] 0.026 | [15] -0.003 | [16] -0.009

Remaining list, next part

CNOT3 (UniProt O75175)
inactive: erlotinib 0.056 | [1] 0.094 | [2] 0.031 | [3] 0.002 | [4] -0.004 | [5] -0.001 | [6] -0.01 | [7] -0.08 | [8] 0.054 | IRAK-1-4 Inhibitor I -0.006 | ibrutinib 0.023 | [9] -0.005 | ralimetinib 0.036 | [10] 0.021 | [11] -0.012 | [12] -0.023 | [13] -0.018 | [14] -0.072 | [15] 0.007 | [16] -0.01

COX19 (UniProt Q49B96)
inactive: erlotinib -0.006 | [1] 0.063 | [2] 0.017 | [3] -0.048 | [4] 0.028 | [5] 0.007 | [6] 0.027 | [7] 0.048 | [8] -0.01 | IRAK-1-4 Inhibitor I 0.035 | ibrutinib 0.061 | [9] 0.021 | ralimetinib 0.009 | [10] -0.041 | [11] 0.008 | [12] 0.077 | [13] -0.035 | [14] -0.025 | [15] -0.017 | [16] 0.015

COX5A (UniProt P20674)
inactive: erlotinib 0.085 | [1] -0.042 | [2] -0.012 | [3] 0.068 | [4] 0 | [5] -0.024 | [6] 0.052 | [7] 0.048 | [8] 0.01 | IRAK-1-4 Inhibitor I -0.05 | ibrutinib 0.032 | [9] -0.05 | ralimetinib -0.007 | [10] 0.002 | [11] -0.042 | [12] 0.035 | [13] 0.024 | [14] 0.032 | [15] -0.011 | [16] 0.037

COX11 (UniProt Q9Y6N1)
inactive: erlotinib 0.026 | [1] -0.129 | [2] 0.021 | [3] 0.029 | [4] -0.013 | [5] 0.026 | [6] -0.068 | [7] 0.037 | [8] 0.031 | IRAK-1-4 Inhibitor I -0.024 | ibrutinib 0.05 | [9] -0.01 | ralimetinib -0.055 | [10] 0.373 | [11] 0.009 | [12] -0.059 | [13] 0.027 | [14] 0.035 | [15] 0.026 | [16] 0.011

COX15 (UniProt Q7KZN9)
inactive: erlotinib 0.021 | [1] -0.046 | [2] -0.034 | [3] -0.013 | [4] 0.016 | [5] -0.052 | [6] -0.081 | [7] 0.011 | [8] -0.013 | IRAK-1-4 Inhibitor I -0.003 | ibrutinib 0.01 | [9] -0.013 | ralimetinib -0.036 | [10] -0.091 | [11] 0.006 | [12] -0.007 | [13] -0.01 | [14] 0.045 | [15] -0.046 | [16] -0.015

COX6B1 (UniProt P14854)
inactive: erlotinib 0.014 | [1] 0.129 | [2] -0.009 | [3] 0.063 | [4] -0.061 | [5] -0.062 | [6] -0.023 | [7] -0.024 | [8] 0.066 | IRAK-1-4 Inhibitor I -0.033 | ibrutinib 0.07 | [9] -0.068 | ralimetinib -0.007 | [10] -0.108 | [11] 0.018 | [12] 0.015 | [13] -0.061 | [14] 0.034 | [15] 0.024 | [16] -0.009

CNPY3 (UniProt Q9BT09)
inactive: erlotinib -0.031 | [1] -0.016 | [2] 0.009 | [3] 0.013 | [4] 0.01 | [5] 0.053 | [6] 0.047 | [7] -0.052 | [8] -0.002 | IRAK-1-4 Inhibitor I 0.03 | ibrutinib -0.048 | [9] 0.03 | ralimetinib 0.068 | [10] -0.042 | [11] -0.023 | [12] 0.056 | [13] 0.016 | [14] -0.016 | [15] -0.071 | [16] 0

CNOT6L (UniProt Q96LI5)
inactive: erlotinib -0.011 | [1] 0 | [2] 0.007 | [3] -0.02 | [4] 0.007 | [5] -0.04 | [6] -0.042 | [7] -0.018 | [8] -0.012 | IRAK-1-4 Inhibitor I 0.002 | ibrutinib 0.02 | [9] 0.015 | ralimetinib 0.037 | [10] -0.06 | [11] -0.05 | [12] 0.064 | [13] -0.07 | [14] 0.008 | [15] -0.041 | [16] 0.016

COQ3 (UniProt Q9NZJ6)
inactive: erlotinib -0.165 | [1] 0.098 | [2] -0.22 | [3] -0.136 | [4] -0.03 | [5] 0.008 | [6] 0.005 | [7] -0.114 | [8] 0.404 | IRAK-1-4 Inhibitor I -0.06 | ibrutinib 0.055 | [9] -0.043 | ralimetinib -0.037 | [10] 0.06 | [11] -0.073 | [12] 0.002 | [15] 0.032 | [16] -0.044

CNOT6 (UniProt Q9ULM6)
inactive: erlotinib -0.002 | [1] 0.076 | [2] 0.029 | [3] -0.067 | [4] 0.026 | [5] -0.011 | [6] 0.005 | [7] -0.034 | [8] 0 | IRAK-1-4 Inhibitor I 0.004 | ibrutinib 0.033 | [9] 0.118 | ralimetinib 0.057 | [10] -0.027 | [11] -0.019 | [12] 0.023 | [13] 0.019 | [14] 0.02 | [15] 0.025 | [16] -0.019

COPS8 (UniProt Q99627)
inactive: erlotinib -0.03 | [1] -0.042 | [2] -0.007 | [3] -0.008 | [4] -0.066 | [5] -0.032 | [6] 0.057 | [7] -0.01 | [8] 0.069 | IRAK-1-4 Inhibitor I -0.008 | ibrutinib 0.104 | [9] -0.016 | ralimetinib 0.062 | [10] -0.042 | [11] -0.003 | [12] -0.045 | [13] 0 | [14] 0.04 | [15] 0.019 | [16] -0.001

CORO1B (UniProt Q9BR76)
inactive: erlotinib 0.005 | [1] -0.196 | [2] 0.011 | [3] -0.019 | [4] 0.01 | [5] -0.01 | [6] -0.013 | [7] -0.004 | [8] -0.011 | IRAK-1-4 Inhibitor I 0.003 | ibrutinib 0.013 | [9] -0.003 | ralimetinib -0.002 | [10] -0.029 | [11] 0.023 | [12] -0.004 | [13] -0.01 | [14] 0.002 | [15] -0.005 | [16] 0.02

CNPY2 (UniProt Q9Y2B0)
inactive: erlotinib -0.034 | [1] 0.001 | [2] 0.024 | [3] 0.006 | [4] 0.023 | [5] -0.01 | [6] 0.004 | [7] 0.009 | [8] -0.016 | IRAK-1-4 Inhibitor I -0.056 | ibrutinib 0.037 | [9] 0.048 | ralimetinib 0.01 | [10] 0.022 | [11] 0.025 | [12] -0.04 | [13] 0.006 | [14] -0.036 | [15] 0.004 | [16] -0.001
